Assay results from patent US20080132679A1 (KANEKA, published 2008).
No constants are given. Whether binding was seen depends on the method and setting. Some entries that bind do so weakly or less than the wild type.

Amino acid sequences for entries named in this document (tags omitted). Residues count along the entry.
UniProt P06213, residues 28-956: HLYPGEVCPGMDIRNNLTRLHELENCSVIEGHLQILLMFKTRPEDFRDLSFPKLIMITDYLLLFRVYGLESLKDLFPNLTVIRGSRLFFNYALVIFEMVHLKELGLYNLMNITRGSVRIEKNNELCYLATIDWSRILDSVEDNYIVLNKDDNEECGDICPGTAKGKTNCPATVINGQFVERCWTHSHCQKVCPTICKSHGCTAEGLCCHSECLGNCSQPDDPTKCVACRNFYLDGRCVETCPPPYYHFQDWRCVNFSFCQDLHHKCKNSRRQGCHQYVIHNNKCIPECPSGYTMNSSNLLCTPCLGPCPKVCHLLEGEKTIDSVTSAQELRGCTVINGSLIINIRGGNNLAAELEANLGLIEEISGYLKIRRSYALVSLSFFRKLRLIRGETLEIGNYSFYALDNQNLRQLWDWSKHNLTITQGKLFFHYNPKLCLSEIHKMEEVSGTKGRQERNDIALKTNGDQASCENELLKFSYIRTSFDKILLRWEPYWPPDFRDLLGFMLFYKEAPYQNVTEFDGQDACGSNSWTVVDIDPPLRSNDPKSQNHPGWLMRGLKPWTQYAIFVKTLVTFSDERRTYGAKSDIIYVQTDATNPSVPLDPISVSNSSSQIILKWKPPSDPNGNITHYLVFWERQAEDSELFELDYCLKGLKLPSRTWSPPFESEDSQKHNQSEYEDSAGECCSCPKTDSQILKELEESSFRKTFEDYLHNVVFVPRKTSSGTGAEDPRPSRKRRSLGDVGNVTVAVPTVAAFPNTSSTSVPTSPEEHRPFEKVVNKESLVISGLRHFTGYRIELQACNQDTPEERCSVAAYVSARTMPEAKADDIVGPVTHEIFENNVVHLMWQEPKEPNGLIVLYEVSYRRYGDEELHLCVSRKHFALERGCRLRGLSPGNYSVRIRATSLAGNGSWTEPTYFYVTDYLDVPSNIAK

Biological target: Recombinant Human Insulin Receptor (28-956) (human) (UniProt P06213)
Experiment: SPR (BIAcore), Examples 8 to 10

Row | binding | Binder
1 | binds | CASDIVEGLYIVLAER (Chemically synthesized by the Fmoc method; immobilized on a CM5 sensor chip by amine coupling (200 RU) for the Biacore assay; also called Peptide 14) [peptide P14]
2 | binds | CASDIVEGIYL (Chemically synthesized; immobilized on a CM5 sensor chip by amine coupling (130 RU) for the Biacore assay; also called Peptide 15) [peptide P15]
3 | binds | CQHILGSDIVEGIYL (Chemically synthesized; immobilized on a CM5 sensor chip by amine coupling (270 RU) for the Biacore assay; also called Peptide 21) [peptide P21]
